Data from patent US10435412B2, “Selective modulators of the activity of the GPR55 receptor: chromenopyrazole derivatives” (Consejo Superior de Investigaciones Cientificas (CSIC), priority 2015, dated 2019).
Some entries share one result that the patent states for a list of compounds. At least one structure is not confirmed: it was looked up by name or label, or the drawing left a doubt.

Sequences of proteins named here, by UniProt entry; tags and fusion partners are left off. A change or cut given only in a name is not applied to a line headed by its entry.
UniProt Q9Y2T6: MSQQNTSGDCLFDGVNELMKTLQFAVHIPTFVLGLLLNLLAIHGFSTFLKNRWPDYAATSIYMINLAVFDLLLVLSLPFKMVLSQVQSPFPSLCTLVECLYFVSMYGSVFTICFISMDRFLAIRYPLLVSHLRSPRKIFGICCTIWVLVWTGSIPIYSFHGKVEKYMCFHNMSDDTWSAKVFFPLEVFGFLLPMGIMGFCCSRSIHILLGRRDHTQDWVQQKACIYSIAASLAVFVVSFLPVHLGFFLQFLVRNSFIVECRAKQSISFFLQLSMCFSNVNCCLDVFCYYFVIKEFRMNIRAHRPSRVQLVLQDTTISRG

Target: T1, GPR55 receptor (Homo sapiens, UniProt Q9Y2T6)
T1 construct: expressed in transfected cells
Assay: GPR55 antagonist activity: inhibition of LPI-mediated GPR55 stimulation (xCELLigence) in hGPR55-HEK293 cells
Assay type: cell-based
Settings: compound at 1 μM
Method: In the present invention, the activity of the compounds of the invention on the GPR55 receptor was assessed by performing in vitro assays with real-time cell impedance measurements (xCELLigence experiments). These assays were performed on a HEK293 human embryonic kidney cell line overexpressing the recombinant GPR55 receptor in stable form (hGPR55-HEK293). The cells were seeded one day prior to carrying out the stimulation with the exemplary compounds of the present invention.
The ability of the exemplary compounds of the patent to inhibit LPI-mediated GPR55 receptor stimulation has been evaluated.
Values represent the mean with a 95% confidence interval calculated with 4 independent experiments performed in duplicate. Significant differences with respect to LPI values are considered due to lack of overlap of confidence intervals.

Row | Structure (SMILES) | Antagonism of the GPR55 agonist effect produced by LPI
1 | COc1ccc2c(c1)OC(C)(C)c1cn(CCN3CCN(C(=O)C4CCCO4)CC3)nc1-2 (centres unmarked) [Example 8, 2-(2-(4-(2-tetrahydrofuroyl)piperazinyl)ethyl)-2,4-dihydro-7-methoxy-4,4-dimethylchromeno[4,3-c]pyrazole] | antagonists
2 | COc1ccc2c(c1)OC(C)(C)c1cn(CCN3CCN(C(=O)COc4ccccc4)CC3)nc1-2 [Example 7, 2-(2-(4-phenoxyacetylpiperazinyl)ethyl)-2,4-dihydro-7-methoxy-4,4-dimethylchromeno[4,3-c]pyrazole] | antagonists
